Data from US20020120112A1.
No constants are given. Whether binding was seen depends on the method and setting. Binding seen in cells or lysates may run through a third protein. Some binding calls cover weakened binding; strength is not graded here.

Protein sequences, listed by entry. Tags and fused reporters are not part of them.
UniProt Q86Y01: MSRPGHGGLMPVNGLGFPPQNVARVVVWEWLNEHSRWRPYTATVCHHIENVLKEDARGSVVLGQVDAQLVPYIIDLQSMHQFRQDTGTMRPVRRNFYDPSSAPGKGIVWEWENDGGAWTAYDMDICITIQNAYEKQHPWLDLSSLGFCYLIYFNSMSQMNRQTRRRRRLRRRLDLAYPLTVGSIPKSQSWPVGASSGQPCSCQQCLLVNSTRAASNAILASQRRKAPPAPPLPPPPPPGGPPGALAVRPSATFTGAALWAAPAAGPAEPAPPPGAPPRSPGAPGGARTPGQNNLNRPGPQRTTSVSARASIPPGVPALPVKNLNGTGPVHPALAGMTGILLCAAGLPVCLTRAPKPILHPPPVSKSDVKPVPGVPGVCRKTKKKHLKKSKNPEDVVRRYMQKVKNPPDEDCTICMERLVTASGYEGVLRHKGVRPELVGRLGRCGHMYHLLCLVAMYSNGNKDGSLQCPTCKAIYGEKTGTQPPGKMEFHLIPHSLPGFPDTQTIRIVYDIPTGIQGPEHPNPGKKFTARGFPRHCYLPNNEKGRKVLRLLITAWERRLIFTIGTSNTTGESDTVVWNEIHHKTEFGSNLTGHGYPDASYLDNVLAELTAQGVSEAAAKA

Molecular target: Myc-tagged human DTX1 (human Deltex) (human) (UniProt Q86Y01)
Experiment: co-immunoprecipitation from co-transfected COS7 cells: IP with anti-flag antibody, western blot

binding: binds
Substance: FLAG-tagged BBAP (from UniProt Q8TDB6 1-739)
